# Cleaved PARP in drug-treated melanoma cells

Data from the primary screen of doi:10.1371/journal.pone.0140310, rounded.

Drugs:
T0901317: O=S(=O)(c1ccccc1)N(CC(F)(F)F)c1ccc(C(O)(C(F)(F)F)C(F)(F)F)cc1 at 7000 nM
TCS401: O=C(O)C(=O)Nc1sc2c(c1C(=O)O)CCNC2 at 8330 nM
CHIR-265: Cn1c(Nc2ccc(C(F)(F)F)cc2)nc2cc(Oc3ccnc(-c4ncc(C(F)(F)F)[nH]4)c3)ccc21 at 400 nM
GW0742: Cc1cc(SCc2sc(-c3ccc(C(F)(F)F)c(F)c3)nc2C)ccc1OCC(=O)O at 10000 nM
GSK650394: O=C(O)c1ccc(-c2c[nH]c3ncc(-c4ccccc4)cc23)cc1C1CCCC1 at 800 nM
docetaxel: CC(=O)O[C@@]12CO[C@@H]1C[C@H](O)[C@@]1(C)C(=O)[C@H](O)C3=C(C)[C@@H](OC(=O)[C@H](O)[C@@H](NC(=O)OC(C)(C)C)c4ccccc4)C[C@@](O)([C@@H](OC(=O)c4ccccc4)[C@H]21)C3(C)C at 0.5 nM
everolimus: CO[C@H]1C[C@@H]2CC[C@@H](C)[C@@](O)(O2)C(=O)C(=O)N2CCCC[C@H]2C(=O)O[C@H]([C@H](C)C[C@@H]2CC[C@@H](OCCO)[C@H](OC)C2)CC(=O)[C@H](C)/C=C(\C)[C@@H](O)[C@@H](OC)C(=O)[C@H](C)C[C@H](C)/C=C/C=C/C=C/1C at 100 nM
ABT-263: CC1(C)CCC(c2ccc(Cl)cc2)=C(CN2CCN(c3ccc(C(=O)NS(=O)(=O)c4ccc(N[C@H](CCN5CCOCC5)CSc5ccccc5)c(S(=O)(=O)C(F)(F)F)c4)cc3)CC2)C1 at 2000 nM
PF-562271: CN(c1ncccc1CNc1nc(Nc2ccc3c(c2)CC(=O)N3)ncc1C(F)(F)F)S(C)(=O)=O at 400 nM

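The test systems are human melanoma cell lines, treated with a pair of drugs for 72 h and then stained and imaged. Each value is the cleaved-PARP-positive fraction of nuclei relative to DMSO-treated wells, in %, so that 100 equals the control and higher values mean more apoptosis. Concentrations were fixed for each drug; these are the higher of two levels. These are primary screening values without error estimates. Basal and induced levels differ widely between cell lines.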 This is part of the screen, not chosen by result.

| Drugs | WM3619 | MEL-HO | WM451Lu | COLO 829 | IPC-298 | RVH-421 | UACC-257 | COLO 800 | LB2518-MEL | IST-MEL1 | SK-MEL-5 | G-361 |
|---|---|---|---|---|---|---|---|---|---|---|---|---|
| everolimus and PF-562271 | 157 | 50.8 | 45.3 | 104 | 76.7 | 119 | 130 | 103 | 81.1 | 107 | 111 | 292 |
| CHIR-265 and GW0742 | 201 | 181 | 321 | 471 | 109 | 481 | 1780 | 140 | 289 | 176 | 1940 | 532 |
| ABT-263 and TCS401 | 113 | 95.8 | 93.2 | 70.3 | 144 | 137 | 761 | 230 | 83.8 | 191 | 231 | 96.9 |
| PF-562271 and ABT-263 | 152 | 48.7 | 242 | 62.5 | 232 | 520 | 1280 | 115 | 405 | 285 | 430 | 388 |
| GW0742 and ABT-263 | 130 | 130 | 160 | 77.6 | 301 | 308 | 749 | 57.3 | 414 | 54.9 | 427 | 296 |
| GSK650394 and GW0742 | 101 | 367 | 59.4 | 109 | 24.5 | 199 | 134 | 51.1 | 67.8 | 77.3 | 160 | 129 |
| GSK650394 and PF-562271 | 104 | 84.6 | 57.2 | 81.1 | 39.2 | 110 | 200 | 105 | 52.8 | 127 | 55.9 | 360 |
| CHIR-265 and T0901317 | 261 | 63.5 | 159 | 330 | 173 | 335 | 86.5 | 68.2 | 163 | 72.9 | 491 | 513 |
| GW0742 and TCS401 | 83.6 | 145 | 84.8 | 149 | 37.4 | 199 | 30.8 | 194 | 68.8 | 58.3 | 31.0 | 105 |
| T0901317 and ABT-263 | 150 | 458 | 115 | 44.6 | 192 | 119 | 443 | 159 | 272 | 122 | 277 | 768 |
| docetaxel and GSK650394 | 178 | 87.2 | 170 | 345 | 778 | 284 | 104 | 400 | 159 | 508 | 252 | 1310 |
| ABT-263 and everolimus | 170 | 112 | 144 | 36.9 | 140 | 163 | 446 | 133 | 144 | 106 | 728 | 677 |
| T0901317 and everolimus | 122 | 117 | 305 | 158 | 86.1 | 266 | 138 | 136 | 152 | 109 | 297 | 352 |
| TCS401 and CHIR-265 | 252 | 131 | 217 | 114 | 90.1 | 63.3 | 35.5 | 53.4 | 187 | 174 | 1860 | 378 |
| GSK650394 and CHIR-265 | 134 | 108 | 329 | 188 | 221 | 340 | 111 | 223 | 759 | 89.0 | 2010 | 523 |
| docetaxel and PF-562271 | 143 | 181 | 848 | 322 | 357 | 305 | 268 | 163 | 308 | 200 | 3360 | 951 |
| CHIR-265 and ABT-263 | 389 | 251 | 1350 | 897 | 886 | 1590 | 554 | 503 | 3820 | 278 | 2360 | 4800 |
| ABT-263 and docetaxel | 278 | 337 | 2780 | 793 | 1540 | 401 | 1460 | 64.6 | 911 | 806 | 2450 | 2770 |
| TCS401 and GSK650394 | 108 | 59.8 | 61.4 | 71.8 | 53.4 | 281 | 23.7 | 85.5 | 42.2 | 90.0 | 136 | 143 |
| PF-562271 and GW0742 | 131 | 117 | 74.8 | 183 | 120 | 219 | 119 | 69.2 | 59.9 | 66.4 | 243 | 53.1 |
| T0901317 and GW0742 | 126 | 91.7 | 38.9 | 102 | 48.8 | 47.9 | 39.4 | 57.6 | 59.1 | 54.4 | 163 | 69.0 |
| PF-562271 and TCS401 | 105 | 239 | 68.8 | 130 | 256 | 53.9 | 32.2 | 79.1 | 129 | 104 | 220 | 127 |
| everolimus and GSK650394 | 244 | 134 | 191 | 159 | 99.2 | 100 | 81.0 | 158 | 135 | 66.4 | 222 | 254 |
| docetaxel and everolimus | 173 | 87.4 | 1000 | 342 | 862 | 124 | 191 | 320 | 533 | 224 | 2540 | 1050 |
| TCS401 and T0901317 | 102 | 44.4 | 19.7 | 24.4 | 45.4 | 221 | 25.6 | 37.0 | 111 | 109 | 72.1 | 80.2 |
| T0901317 and docetaxel | 148 | 318 | 1580 | 272 | 446 | 140 | 90.8 | 202 | 204 | 226 | 347 | 638 |
| everolimus and GW0742 | 226 | 93.2 | 282 | 63.6 | 189 | 146 | 81.6 | 99.7 | 55.7 | 306 | 97.2 | 216 |
| docetaxel and CHIR-265 | 259 | 241 | 698 | 264 | 416 | 359 | 160 | 447 | 246 | 472 | 1130 | 2610 |
| everolimus and CHIR-265 | 218 | 321 | 192 | 385 | 1800 | 205 | 51.8 | 67.0 | 690 | 149 | 3060 | 2080 |
| GSK650394 and ABT-263 | 180 | 133 | 76.5 | 213 | 404 | 166 | 1740 | 107 | 79.5 | 1060 | 325 | 352 |
| GW0742 and docetaxel | 178 | 79.4 | 4700 | 346 | 562 | 323 | 139 | 584 | 215 | 196 | 628 | 872 |
| PF-562271 and CHIR-265 | 375 | 62.9 | 379 | 354 | 517 | 189 | 281 | 116 | 542 | 73.4 | 2520 | 1070 |
| TCS401 and docetaxel | 219 | 103 | 3900 | 271 | 286 | 76.3 | 63.8 | 520 | 233 | 284 | 152 | 558 |

Once more, the final 3:

{"drugs": "GW0742 and docetaxel", "WM3619": 178, "MEL-HO": 79.4, "WM451Lu": 4700, "COLO 829": 346, "IPC-298": 562, "RVH-421": 323, "UACC-257": 139, "COLO 800": 584, "LB2518-MEL": 215, "IST-MEL1": 196, "SK-MEL-5": 628, "G-361": 872}
{"drugs": "PF-562271 and CHIR-265", "WM3619": 375, "MEL-HO": 62.9, "WM451Lu": 379, "COLO 829": 354, "IPC-298": 517, "RVH-421": 189, "UACC-257": 281, "COLO 800": 116, "LB2518-MEL": 542, "IST-MEL1": 73.4, "SK-MEL-5": 2520, "G-361": 1070}
{"drugs": "TCS401 and docetaxel", "WM3619": 219, "MEL-HO": 103, "WM451Lu": 3900, "COLO 829": 271, "IPC-298": 286, "RVH-421": 76.3, "UACC-257": 63.8, "COLO 800": 520, "LB2518-MEL": 233, "IST-MEL1": 284, "SK-MEL-5": 152, "G-361": 558}